Laboratory results: US20230192854A1

How the values were obtained:
[1] = molecular target: cynomolgus BTLA (cynomolgus); assay: OD 450 nm against log ng/mL of antibody (ELISA-type readout as drawn; Example 11 describes a Fortebio/SPR chip assay with BTLA coupled to the chip)
[2] = molecular target: cynomolgus BTLA (cynomolgus); assay: Fortebio assay as named; BTLA coupled to CM5 biosensor chip, antibody 0.12-90 nM injected (SPR)

B1: humanized anti-BTLA antibody hu17 (antibody, V domains shown)
VH: QVQLVQSGAEVKKPGASVKLSCKASGYNFKHTYAHWVRQAPGQGLEWIGRIDPANGNTKYDPKFQGRATMTADTASNTAYLELSSLRSEDTAVYYCVADHYGSSLLDYWGQGTLVTVSS
VL: DIVMTQTPLSLSVTPGQPASISCKSSQSLLDSDGKTYLNWFQQRPGQSPRRLIYLVSKLDSGVPDRFSGSGSGTDFTLKISRVEAEDVGVYYCWQGTYFPYTFGQGTKLEIK
binding [1]: binds | binding [2]: binds

These are yes or no findings as the source states them, for the method shown. A result given as binding can be weak or reduced; the word gives no strength.
